The list is a part of this screen's results and no random one: it gathers tests that were run many times, whatever their T/C, doses with no T/C, and many T/C values between a quarter and a half above the control. Further doses and runs are listed elsewhere. T/C is the treated group as % of the vehicle group. Some doses have a count of surviving animals in place of a T/C: the source holds a T/C of zero for them, seemingly a mark for toxic or unscored doses. Some survivor counts are full or nearly so, which does not show that the dose was tolerated: the source hardly ever lists a survival T/C far under the control, and the zero likely stands for such cases as well. Survivors were counted at the toxicity check, usually on the fifth day, unless a day is given; later deaths do not show. Schedules are NCI's codes, taken here to give the interval after Q, in days (D) or hours (H), and the number of doses after X. Where survival is the endpoint, this PubChem deposit counts one and a half times the control or more as active, and values a quarter to a half above the control carry no call in these data; other NCI protocols may use other cut-offs. Some T/C values are followed by the survivors on the day toxicity was checked, most often the fifth; without a count, all were alive then. Some doses were run more than once; the values are given in rising order. Signs of the kind (2×) count equal records among those shown. Some schedules carry Z or #; the key to these is not given.
Test system: L1210 leukemia ip in BDF1 mice, survival T/C
Assay: NCI In Vivo Anticancer Drug Screen. Data for tumor model L1210 Leukemia (intraperitoneal) in B6D2F1 (BDF1) mice
Conditions: T/C endpoint: mean survival time, higher T/C = longer survival

## C1CN1c1nc(N2CC2)nc(N2CC2)n1
dose: 0.05 mg/kg/injection, schedule: Q04DX003 (ip), vehicle: saline
  T/C: 127 and 131 % of control
dose: 0.25 mg/kg/injection, schedule: Q01DX001 (ip), vehicle: saline
  T/C: 132 % of control
dose: 0.25 mg/kg/injection, schedule: Q01DX009 (ip), vehicle: saline, evaluated on day 30
  T/C: 103, 106, 110, 133, 136 % of control
dose: 0.25 mg/kg/injection, schedule: Q01DX009 (ip), vehicle: saline, evaluated on day 40
  T/C: 121 % of control
dose: 0.25 mg/kg/injection, schedule: Q01DX010 (ip), vehicle: saline
  T/C: 115, 121, 129, 145 % of control
dose: 0.25 mg/kg/injection, schedule: Q01DX010 (oral), vehicle: carboxymethylcellulose (CMC)
  T/C: 126 % of control
dose: 0.25 mg/kg/injection, schedule: Q01DX Z (im), vehicle: saline
  T/C: 140 % of control
dose: 0.25 mg/kg/injection, schedule: Q01DX Z (ip), vehicle: saline
  T/C: 87, 139, 143, 151 % of control
dose: 0.25 mg/kg/injection, schedule: Q#A X Z (ip), vehicle: saline
  T/C: 139 % of control
dose: 0.4 mg/kg/injection, schedule: Q01DX009 (ip), vehicle: saline
  T/C: 137 % of control
dose: 0.44 mg/kg/injection, schedule: Q01DX005 (ip), vehicle: saline
  T/C: 125 % of control
dose: 0.5 mg/kg/injection, schedule: Q01DX005 (ip), vehicle: saline
  T/C: 135 % of control
dose: 0.5 mg/kg/injection, schedule: Q01DX009 (ip), vehicle: saline, evaluated on day 30
  T/C: 150 (2×), 156, 161, 196 % of control
dose: 0.5 mg/kg/injection, schedule: Q01DX009 (ip), vehicle: saline, evaluated on day 40
  T/C: 158 % of control
dose: 0.5 mg/kg/injection, schedule: Q01DX009 (sc), vehicle: saline
  T/C: 141 % of control
dose: 0.5 mg/kg/injection, schedule: Q01DX010 (ip), vehicle: saline
  T/C: 159, 169, 170, 175 % of control
dose: 0.5 mg/kg/injection, schedule: Q01DX Z (ip), vehicle: carboxymethylcellulose (CMC)
  T/C: 140 % of control
dose: 0.5 mg/kg/injection, schedule: Q01DX Z (ip), vehicle: saline
  T/C: 89, 160, 165, 185 % of control
dose: 0.5 mg/kg/injection, schedule: Q01DX Z (sc), vehicle: saline
  T/C: 129 % of control
dose: 0.5 mg/kg/injection, schedule: Q04DX003 (ip), vehicle: Klucel (hydroxypropylcellulose) (HPC)
  T/C: 126 % of control
dose: 0.5 mg/kg/injection, schedule: Q04DX003 (ip), vehicle: saline, evaluated on day 20
  T/C: 154 % of control
dose: 0.5 mg/kg/injection, schedule: Q04DX003 (ip), vehicle: saline, evaluated on day 30
  T/C: 104 [5 of 6 alive], 111, 115, 116, 122, 125, 128 % of control (2×)
dose: 0.5 mg/kg/injection, schedule: Q04DX003 (ip), vehicle: saline, evaluated on day 60
  T/C: 120, 132, 139 % of control
dose: 0.57 mg/kg/injection, schedule: Q01DX001 (ip), vehicle: saline
  T/C: 118, 150, 163, 172 % of control
dose: 0.86 mg/kg/injection, schedule: Q01DX001 (ip), vehicle: saline
  T/C: 129 % of control
dose: 0.9 mg/kg/injection, schedule: Q## X003 (ip), vehicle: saline
  T/C: 140 % of control
dose: 0.9 mg/kg/injection, schedule: Q## X004 (ip), vehicle: saline
  T/C: 139 % of control
dose: 0.96 mg/kg/injection, schedule: Q## X024 (ip), vehicle: saline
  T/C: 131 % of control
dose: 1.0 mg/kg/injection, schedule: Q01DX001 (ip), vehicle: saline
  T/C: 127 and 128 % of control
dose: 1.0 mg/kg/injection, schedule: Q01DX005 (ip), vehicle: saline, evaluated on day 40
  T/C: 174 and 245 % of control
dose: 1.0 mg/kg/injection, schedule: Q01DX005 (ip), vehicle: saline, evaluated on day 60
  T/C: 188 and 191 % of control
dose: 1.0 mg/kg/injection, schedule: Q01DX009 (ip), vehicle: saline, evaluated on day 30
  T/C: 95, 97, 101, 128 % of control
dose: 1.0 mg/kg/injection, schedule: Q01DX009 (ip), vehicle: saline, evaluated on day 40
  T/C: 117 % of control
dose: 1.0 mg/kg/injection, schedule: Q01DX009 (sc), vehicle: saline
  T/C: 127 % of control
dose: 1.0 mg/kg/injection, schedule: Q01DX010 (ip), vehicle: saline
  T/C: 88, 96, 103, 159 % of control
dose: 1.0 mg/kg/injection, schedule: Q01DX Z (oral), vehicle: saline
  T/C: 130 % of control
dose: 1.0 mg/kg/injection, schedule: Q04DX003 (ip), vehicle: saline, evaluated on day 20
  T/C: 98 % of control
dose: 1.0 mg/kg/injection, schedule: Q04DX003 (ip), vehicle: saline, evaluated on day 30
  T/C: 119, 146, 152, 157 (2×), 166, 170, 178 % of control
dose: 1.0 mg/kg/injection, schedule: Q04DX003 (ip), vehicle: saline, evaluated on day 45
  T/C: 176 % of control
dose: 1.0 mg/kg/injection, schedule: Q04DX003 (ip), vehicle: saline, evaluated on day 60
  T/C: 146, 151, 154, 169, 200 % of control
dose: 1.0 mg/kg/injection, schedule: Q## X002 (ip), vehicle: saline
  T/C: 132 % of control
dose: 1.0 mg/kg/injection, schedule: Q## X003 (ip), vehicle: saline
  T/C: 129 % of control
dose: 1.0 mg/kg/injection, schedule: Q## X006 (ip), vehicle: saline
  T/C: 134 % of control
dose: 1.0 mg/kg/injection, schedule: Q## X024 (ip), vehicle: saline
  T/C: 131 % of control
dose: 1.3 mg/kg/injection, schedule: Q01DX001 (ip), vehicle: saline, evaluated on day 30
  T/C: 159 and 164 % of control
dose: 1.3 mg/kg/injection, schedule: Q01DX001 (ip), vehicle: saline, run until all animals had died
  T/C: 201 and 258 % of control
dose: 1.4 mg/kg/injection, schedule: Q01DX001 (ip), vehicle: saline
  T/C: 134 % of control
dose: 1.5 mg/kg/injection, schedule: Q03DX Z (ip), vehicle: saline
  T/C: 145 % of control
dose: 1.6 mg/kg/injection, schedule: Q01DX009 (ip), vehicle: saline
  survivor count: 6 of 6
dose: 2.0 mg/kg/injection, schedule: Q01DX001 (ip), vehicle: saline, evaluated on day 30
  T/C: 119 and 177 % of control
dose: 2.0 mg/kg/injection, schedule: Q01DX001 (ip), vehicle: saline, evaluated on day 40
  T/C: 163 and 190 % of control
dose: 2.0 mg/kg/injection, schedule: Q01DX001 (ip), vehicle: saline
  survivor count: 3 of 6
dose: 2.0 mg/kg/injection, schedule: Q01DX001 (ip), vehicle: saline, run until all animals had died
  T/C: 104, 160, 166 % of control [6 of 7 alive]
dose: 2.0 mg/kg/injection, schedule: Q01DX005 (ip), vehicle: saline
  survivor count: 10 of 10
